Results are given in words; binding and its absence hold for the method and conditions named. In cells and extracts the contact can be indirect. Where a sequence is shown, tags or fusion partners need not be part of it.
Target: T1, MYC-tagged wild-type SMOC2 (SPARC-related modular calcium binding 2) (human) (UniProt Q9H3U7)
T1 sequence: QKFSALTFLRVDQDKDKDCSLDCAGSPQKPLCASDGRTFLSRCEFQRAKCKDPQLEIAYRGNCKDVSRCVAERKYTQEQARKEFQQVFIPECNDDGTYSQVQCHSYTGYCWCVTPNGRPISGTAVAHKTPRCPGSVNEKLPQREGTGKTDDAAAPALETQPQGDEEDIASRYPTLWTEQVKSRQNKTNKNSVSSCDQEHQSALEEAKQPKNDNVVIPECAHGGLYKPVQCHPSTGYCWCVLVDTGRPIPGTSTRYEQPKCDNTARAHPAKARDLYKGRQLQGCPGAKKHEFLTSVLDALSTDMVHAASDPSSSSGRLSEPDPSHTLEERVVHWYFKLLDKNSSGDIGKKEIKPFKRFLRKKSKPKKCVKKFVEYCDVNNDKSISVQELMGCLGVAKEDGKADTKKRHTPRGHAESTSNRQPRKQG
Assay: co-IP

Substance: HA-tagged BMPR1A (receptor)
- binding: no binding
